This passage reports binding results from article PMC10776755.

Test [1] concerns the target T1, Flag-tagged PRDX3 (human) (UniProt P30048).
T1 sequence: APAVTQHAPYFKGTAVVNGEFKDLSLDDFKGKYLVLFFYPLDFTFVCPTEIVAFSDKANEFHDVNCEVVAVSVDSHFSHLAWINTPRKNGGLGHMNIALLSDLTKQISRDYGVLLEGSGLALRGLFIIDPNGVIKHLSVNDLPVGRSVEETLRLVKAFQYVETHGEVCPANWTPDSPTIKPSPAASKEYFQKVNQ
The test can be described thus: co-IP; HA-tagged TRIM39 and Flag-tagged PRDX3; cells collected in RIPA buffer, lysates incubated with antibody or control IgG at 4°C for 10 hours, western blot. (Immunoblotting shows a protein as a band on a membrane.)

For another test, the target named is T2, PRDX3 101-256aa (human) (UniProt P30048).
T2 sequence: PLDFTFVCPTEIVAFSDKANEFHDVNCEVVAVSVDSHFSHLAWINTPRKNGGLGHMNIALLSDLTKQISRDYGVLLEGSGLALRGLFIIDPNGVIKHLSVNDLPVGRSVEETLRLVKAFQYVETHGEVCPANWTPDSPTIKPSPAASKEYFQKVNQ
The test can be described thus: co-IP; Co-IP with domain deletion mutants of TRIM39 (Δ R, Δ B, Δ SPRY) and fragments of PRDX3 (1-100aa, 1-150aa, 101-150aa, 101-256aa).

Test [2] has as its target T3, PRDX3 (GST pull-down assay) (human) (UniProt P30048).
T3 sequence: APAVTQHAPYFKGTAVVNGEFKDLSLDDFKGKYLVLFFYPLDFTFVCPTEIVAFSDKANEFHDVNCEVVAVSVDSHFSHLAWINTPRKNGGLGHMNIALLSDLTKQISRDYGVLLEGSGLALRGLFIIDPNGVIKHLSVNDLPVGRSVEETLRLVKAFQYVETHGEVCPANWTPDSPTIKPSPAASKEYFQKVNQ
The test can be described thus: pull-down; GST pull-down assay; which protein carried GST is not told.

These are yes or no findings as the source states them, for the method shown. In cells and extracts the contact can be indirect. Some results given as binding are weak or reduced against the parent protein; the word gives no strength. Where a sequence is shown, tags or fusion partners need not be part of it.

B1: HA-tagged TRIM39 (protein, UniProt Q9HCM9 1-518)
chain: MAETSLLEAGASAASTAAALENLQVEASCSVCLEYLKEPVIIECGHNFCKACITRWWEDLERDFPCPVCRKTSRYRSLRPNRQLGSMVEIAKQLQAVKRKIRDESLCPQHHEALSLFCYEDQEAVCLICAISHTHRAHTVVPLDDATQEYKEKLQKCLEPLEQKLQEITRCKSSEEKKPGELKRLVESRRQQILREFEELHRRLDEEQQVLLSRLEEEEQDILQRLRENAAHLGDKRRDLAHLAAEVEGKCLQSGFEMLKDVKSTLEKNIPRKFGGSLSTICPRDHKALLGLVKEINRCEKVKTMEVTSVSIELEKNFSNFPRQYFALRKILKQLIADVTLDPETAHPNLVLSEDRKSVKFVETRLRDLPDTPRRFTFYPCVLATEGFTSGRHYWEVEVGDKTHWAVGVCRDSVSRKGELTPLPETGYWRVRLWNGDKYAATTTPFTPLHIKVKPKRVGIFLDYEAGTLSFYNVTDRSHIYTFTDTFTEKLWPLFYPGIRAGRKNAAPLTIRPPTDWE
As to B1, the binding result (in test [1]; in the test with PRDX3 101-256aa (human)) was “binds” each time.

B2: TRIM39 (GST pull-down assay) (protein, UniProt Q9HCM9 1-518)
chain: MAETSLLEAGASAASTAAALENLQVEASCSVCLEYLKEPVIIECGHNFCKACITRWWEDLERDFPCPVCRKTSRYRSLRPNRQLGSMVEIAKQLQAVKRKIRDESLCPQHHEALSLFCYEDQEAVCLICAISHTHRAHTVVPLDDATQEYKEKLQKCLEPLEQKLQEITRCKSSEEKKPGELKRLVESRRQQILREFEELHRRLDEEQQVLLSRLEEEEQDILQRLRENAAHLGDKRRDLAHLAAEVEGKCLQSGFEMLKDVKSTLEKNIPRKFGGSLSTICPRDHKALLGLVKEINRCEKVKTMEVTSVSIELEKNFSNFPRQYFALRKILKQLIADVTLDPETAHPNLVLSEDRKSVKFVETRLRDLPDTPRRFTFYPCVLATEGFTSGRHYWEVEVGDKTHWAVGVCRDSVSRKGELTPLPETGYWRVRLWNGDKYAATTTPFTPLHIKVKPKRVGIFLDYEAGTLSFYNVTDRSHIYTFTDTFTEKLWPLFYPGIRAGRKNAAPLTIRPPTDWE
Turning to B2, in test [2], the binding result is recorded as “binds”.
